Reference: PubChem BioAssay AID256 (DTP/NCI, 2004)
The list does not hold the whole screen: it gathers tests that were run many times, whatever their T/C, doses with no T/C, and many T/C values between a quarter and a half above the control. Other doses and runs of a compound stand elsewhere. T/C: endpoint of the treated group in % of that of the vehicle group. Some entries give survivors of the animals treated and no T/C: the source holds a T/C of zero for them, seemingly a mark for toxic or unscored doses. Some doses without a T/C left all or most animals alive at the check, yet need not have been tolerated: survival well below the control is almost never listed, so the zero probably covers shortened survival too. Counts of survivors are from the toxicity check (mostly the fifth day) where no day follows; animals may have died later. Schedule codes are those of the source, taken here to give the interval after Q, in days (D) or hours (H), and the number of doses after X. Some structures stand for samples that the source files as different forms (salt, stereo form or complex); doses refer to the form tested. Some entries were tested several times; the values are given in rising order. Where survival is the endpoint, the PubChem record calls one and a half times the control and up active, and a quarter to a half above the control has no call in these data; cut-offs in other NCI protocols can differ. Counts like (3×) stand for listed records that agree. Some T/C values are followed by the survivors on the day toxicity was checked, most often the fifth; where none is given, no animal had died by that day.

System: CD2F1 mice, L1210 leukemia ip, survival T/C
Assay: NCI In Vivo Anticancer Drug Screen. Data for tumor model L1210 Leukemia (intraperitoneal) in CD2F1 (CDF1) mice
Conditions: higher T/C = longer survival
How it was run: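 Read-out first: treated-group measurement over vehicle-control measurement, expressed as a ratio. Animals bore a transplanted tumor line and were dosed with compound or vehicle.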

[1] = T/C endpoint: mean survival time, dose: 400.0 mg/kg/injection, schedule: Q04DX003 (ip), vehicle: saline with Tween-80
[2] = T/C endpoint: mean survival time, dose: 100.0 mg/kg/injection, schedule: Q01DX001 (ip), vehicle: saline
[3] = T/C endpoint: mean survival time, dose: 200.0 mg/kg/injection, schedule: Q01DX001 (ip), vehicle: saline
[4] = T/C endpoint: mean survival time, dose: 400.0 mg/kg/injection, schedule: Q01DX001 (ip), vehicle: saline
[5] = T/C endpoint: mean survival time, dose: 400.0 mg/kg/injection, schedule: Q01DX009 (ip), vehicle: saline with Tween-80
[6] = T/C endpoint: mean survival time, dose: 200.0 mg/kg/injection, schedule: Q04DX003 (ip), vehicle: saline with Tween-80
[7] = T/C endpoint: mean survival time, dose: 400.0 mg/kg/injection, schedule: Q04DX002 (ip), vehicle: saline with Tween-80
[8] = T/C endpoint: mean survival time, dose: 50.0 mg/kg/injection, schedule: Q01DX009 (ip), vehicle: saline with Tween-80
[9] = T/C endpoint: mean survival time, dose: 100.0 mg/kg/injection, schedule: Q01DX009 (ip), vehicle: saline with Tween-80
[10] = T/C endpoint: mean survival time, dose: 200.0 mg/kg/injection, schedule: Q01DX009 (ip), vehicle: saline with Tween-80
[11] = T/C endpoint: mean survival time, dose: 100.0 mg/kg/injection, schedule: Q04DX002 (ip), vehicle: saline with Tween-80

For CCOC(=O)/C(C)=N\NC(=O)C(C)SC(C)C(=O)N/N=C(\C)C(=O)OCC (stereo unspecified), the survivor count (T/C endpoint: mean survival time, dose: 100.0 mg/kg/injection, schedule: Q04DX002 (ip), vehicle: Klucel (hydroxypropylcellulose) (HPC)) was 0 of 3, the survivor count (T/C endpoint: mean survival time, dose: 200.0 mg/kg/injection, schedule: Q04DX002 (ip), vehicle: Klucel (hydroxypropylcellulose) (HPC)) was 0 of 3 and the survivor count (T/C endpoint: mean survival time, dose: 400.0 mg/kg/injection, schedule: Q04DX002 (ip), vehicle: Klucel (hydroxypropylcellulose) (HPC)) was 0 of 3.

COc1cc2nc(C(O)C(O)c3nc4cc(OC)c(OC)cc4[nH]3)[nH]c2cc1OC (stereo unspecified) was tested, and the survivor count [1] was 6 of 6.

With COC1N(C2CC(O)C(CO)O2)C(=O)NC(=O)C1(F)Br (stereo unspecified) the survivor count (T/C endpoint: mean survival time, dose: 6.25 mg/kg/injection, schedule: Q01DX009 (ip), vehicle: saline) was 0 of 10, the T/C (T/C endpoint: mean survival time, dose: 12.5 mg/kg/injection, schedule: Q01DX009 (ip), vehicle: saline) was 128 % of control and the T/C (T/C endpoint: mean survival time, dose: 25.0 mg/kg/injection, schedule: Q01DX009 (ip), vehicle: saline) was 126 and 136 % of control [9 of 10 alive]. The T/C (T/C endpoint: mean survival time, dose: 50.0 mg/kg/injection, schedule: Q01DX009 (ip), vehicle: saline) was 132 % of control (2×) and the survivor count (T/C endpoint: mean survival time, dose: 400.0 mg/kg/injection, schedule: Q04DX003 (ip), vehicle: saline) was 6 of 6.

CCNCc1cc(Nc2nc(NC3CCC(N(C)C)CC3)c3ccccc3n2)ccc1OC (stereo unspecified) was tested, and the survivor count [2] was 0 of 6, the survivor count [3] was 0 of 6 and the survivor count [4] was 0 of 6.

With Nc1ccc(S(=O)(=O)F)c(Cl)c1 the survivor count [5] was 2 of 6.

For Nc1ccn(C2CC3[O][Sn]([c]4ccccc4)([c]4ccccc4)[O]CC3O2)c(=O)n1 (stereo unspecified), the survivor count (T/C endpoint: mean survival time, dose: 100.0 mg/kg/injection, schedule: Q01DX005 (ip), vehicle: distilled water + Tween-80) was 0 of 6.

For CC(C)(C=O)CNC(C)(C)C, the survivor count [1] was 4 of 6.

NC(Cc1ccccc1)C(=O)OCN1C(=O)C2C3C=CC(C2C1=O)C1C2C(=O)N(COC(=O)C(N)Cc4ccccc4)C(=O)C2C31 (stereo unspecified) was tested, and the T/C (T/C endpoint: median survival time, dose: 60.0 mg/kg/injection, schedule: Q01DX009 (ip), vehicle: water) was 142 % of control and the survivor count (T/C endpoint: median survival time, dose: 166.7 mg/kg/injection, schedule: Q01DX009 (ip), vehicle: water) was 0 of 6.

For O=C(O)c1c(F)c(F)c(-c2c(F)c(F)c(C(=O)O)c(C(=O)O)c2F)c(F)c1C(=O)O, the survivor count (T/C endpoint: mean survival time, dose: 400.0 mg/kg/injection, schedule: Q01DX001 (ip), vehicle: saline with Tween-80) was 0 of 6.

O=C1OC2C(I)C3CC1C2C3 (stereo unspecified) was tested, and the survivor count [1] was 5 of 6.

For N#CCC(O)(/C=C/c1ccccc1)c1ccccc1 (stereo unspecified), the survivor count [6] was 6 of 6.

For CCOP(=O)(NCc1ccco1)OCC, the survivor count (T/C endpoint: mean survival time, dose: 200.0 mg/kg/injection, schedule: Q01DX001 (ip), vehicle: carboxymethylcellulose (CMC)) was 2 of 4 and the survivor count (T/C endpoint: mean survival time, dose: 400.0 mg/kg/injection, schedule: Q01DX001 (ip), vehicle: carboxymethylcellulose (CMC)) was 0 of 4.

In the case of COC(=O)Nc1cccc(OS(=O)(=O)N(C)C)c1, the survivor count [6] is reported as 4 of 6 and the survivor count [1] is reported as 0 of 6.

With CCOC(=O)c1nc(SC)n(C)c1C(=O)OCC the survivor count [7] was 2 of 3.

In the case of CN=Cc1ccc(OC)cc1, the survivor count [6] is reported as 2 of 6 and the survivor count [1] is reported as 0 of 6.

CCOC(=O)C(C(=O)OCC)[N+](=O)[O-] was tested, and the survivor count [4] was 1 of 6.

In the case of O=C(O)C[N-]c1ccccc1.O=C(O)C[N-]c1ccccc1.[Ni+2], the survivor count [8] is reported as 4 of 6, the survivor count [9] is reported as 0 of 6 and the survivor count [6] is reported as 3 of 6.

For Oc1cc2ccccc2c(-c2c(O)c(O)cc3ccccc23)c1O, the survivor count [10] was 6 of 6 and the survivor count [5] was 0 of 6 and 2 of 6.

BrCc1cccc2cccnc12 was tested, and the survivor count (T/C endpoint: mean survival time, dose: 25.0 mg/kg/injection, schedule: Q01DX009 (ip), vehicle: saline with Tween-80) was 3 of 3, the survivor count [8] was 3 of 3 and the survivor count [10] was 1 of 3. The survivor count (T/C endpoint: median survival time, dose: 200.0 mg/kg/injection, schedule: Q04DX003 (ip), vehicle: saline with Tween-80) was 0 of 3 and the survivor count (T/C endpoint: median survival time, dose: 400.0 mg/kg/injection, schedule: Q04DX003 (ip), vehicle: saline with Tween-80) was 0 of 3.

With C=CCCCCCCCCC(=O)N(CC#N)CC(C)C the survivor count [5] was 1 of 6.

In the case of O=C(CCl)c1cnc2ccccc2n1, the survivor count (T/C endpoint: mean survival time, dose: 40.0 mg/kg/injection, schedule: Q01DX001 (ip), vehicle: saline) is reported as 1 of 6 and the survivor count (T/C endpoint: mean survival time, dose: 80.0 mg/kg/injection, schedule: Q01DX001 (ip), vehicle: saline) is reported as 0 of 6.

With Nc1ncnc2c1c(-c1ncn[nH]1)cn2C1OC(CO)C(O)C1O (stereo unspecified) the survivor count (T/C endpoint: mean survival time, dose: 100.0 mg/kg/injection, schedule: Q01DX005 (ip), vehicle: saline) was 0 of 6 and the survivor count (T/C endpoint: mean survival time, dose: 200.0 mg/kg/injection, schedule: Q01DX005 (ip), vehicle: saline) was 0 of 6.

In the case of CC1=C(N2CC2)C(=O)c2c(COC(N)=O)c3n(c2C1=O)CCC3OC(N)=O (stereo unspecified), the T/C (T/C endpoint: mean survival time, dose: 12.0 mg/kg/injection, schedule: Q01DX001 (ip), vehicle: distilled water + Tween-80) is reported as 134 % of control and the T/C (T/C endpoint: mean survival time, dose: 24.0 mg/kg/injection, schedule: Q01DX001 (ip), vehicle: distilled water + Tween-80) is reported as 131 and 138 % of control.

Nc1ccc(CCc2ccccc2)cc1 was tested, and the T/C [11] was 92, 98, 100, 102 % of control, the T/C (T/C endpoint: mean survival time, dose: 200.0 mg/kg/injection, schedule: Q04DX002 (ip), vehicle: saline with Tween-80) was 91, 98, 100, 114 % of control and the survivor count [6] was 6 of 6. The survivor count [7] was 1 of 3 and 4 of 6 and the survivor count [1] was 0 of 6.

In the case of O=C(NNC(=O)c1cccnc1)Nc1cccc(Cl)c1Cl, the survivor count [9] is reported as 3 of 3.

CC[N+](C)(CC)CCOC(C)=O was tested, and the survivor count [2] was 0 of 3, the survivor count [3] was 0 of 3 and the survivor count [4] was 0 of 3.

c1nc(Sc2ncnc3nc[nH]c23)c2[nH]cnc2n1 was tested, and the T/C (T/C endpoint: mean survival time, dose: 150.0 mg/kg/injection, schedule: Q01DX009 (ip), vehicle: saline with Tween-80) was 138 % of control.

In the case of CC(C)(C)CC(C)(C)c1ccc(Oc2ccc([N+](=O)[O-])cc2S(=O)(=O)O)cc1, the survivor count (T/C endpoint: mean survival time, dose: 50.0 mg/kg/injection, schedule: Q04DX002 (ip), vehicle: saline with Tween-80) is reported as 3 of 3 and the survivor count [11] is reported as 3 of 3.

NC(CCSCc1ccc(N(CCCl)CCCl)cc1)C(=O)O (stereo unspecified) was tested, and the T/C (T/C endpoint: mean survival time, dose: 6.0 mg/kg/injection, schedule: Q01DX009 (ip), vehicle: carboxymethylcellulose (CMC)) was 134 % of control and the T/C (T/C endpoint: mean survival time, dose: 9.0 mg/kg/injection, schedule: Q01DX009 (ip), vehicle: carboxymethylcellulose (CMC)) was 143 % of control.

With O=C(Nc1ccccc1C(F)(F)F)OCCOc1ccccc1Cl the survivor count (T/C endpoint: mean survival time, dose: 200.0 mg/kg/injection, schedule: Q01DX009 (ip), vehicle: Klucel (hydroxypropylcellulose) (HPC)) was 3 of 3.

With CCCCN=C(N)CCl the survivor count (T/C endpoint: mean survival time, dose: 200.0 mg/kg/injection, schedule: Q04DX002 (ip), vehicle: saline) was 0 of 3 and the survivor count (T/C endpoint: mean survival time, dose: 400.0 mg/kg/injection, schedule: Q04DX002 (ip), vehicle: saline) was 0 of 3.

With N#C/C(=C\C1CC(Br)CCC1O)C1CCC([N+](=O)[O-])CC1 (stereo unspecified) the survivor count [10] was 1 of 3.

With CN1CCc2c3n(c4ccccc24)C(=O)CCC31 (stereo unspecified) the survivor count (T/C endpoint: mean survival time, dose: 100.0 mg/kg/injection, schedule: Q04DX003 (ip), vehicle: saline sonified) was 1 of 6, the survivor count (T/C endpoint: mean survival time, dose: 200.0 mg/kg/injection, schedule: Q04DX003 (ip), vehicle: saline sonified) was 0 of 6 and the survivor count (T/C endpoint: mean survival time, dose: 400.0 mg/kg/injection, schedule: Q04DX003 (ip), vehicle: saline sonified) was 0 of 6.
